# Test results as given in the supplement of paper PMC12819154, “High-throughput peptide-centric local stability assay extends protein–ligand identification to membrane proteins, tissues and bacteria” (Nature Structural & Molecular Biology, 2025).
# Chains of the proteins cited; added tags and fusions are not shown. Lines headed by an entry give the natural chain unless they say otherwise; changes in a name come on top.
# UniProt P20152, whole entry: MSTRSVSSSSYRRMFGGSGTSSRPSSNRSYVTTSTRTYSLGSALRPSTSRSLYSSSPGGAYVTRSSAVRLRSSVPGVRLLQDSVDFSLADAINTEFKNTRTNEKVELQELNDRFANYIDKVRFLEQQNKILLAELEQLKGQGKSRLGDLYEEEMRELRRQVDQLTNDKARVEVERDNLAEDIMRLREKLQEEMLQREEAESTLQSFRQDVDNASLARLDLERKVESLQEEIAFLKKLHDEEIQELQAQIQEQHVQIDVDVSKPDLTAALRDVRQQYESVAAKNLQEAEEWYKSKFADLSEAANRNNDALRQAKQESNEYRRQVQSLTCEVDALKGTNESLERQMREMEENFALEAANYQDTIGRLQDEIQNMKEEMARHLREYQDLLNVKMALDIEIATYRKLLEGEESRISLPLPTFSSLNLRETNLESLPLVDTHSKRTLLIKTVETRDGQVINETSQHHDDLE
# UniProt P24549: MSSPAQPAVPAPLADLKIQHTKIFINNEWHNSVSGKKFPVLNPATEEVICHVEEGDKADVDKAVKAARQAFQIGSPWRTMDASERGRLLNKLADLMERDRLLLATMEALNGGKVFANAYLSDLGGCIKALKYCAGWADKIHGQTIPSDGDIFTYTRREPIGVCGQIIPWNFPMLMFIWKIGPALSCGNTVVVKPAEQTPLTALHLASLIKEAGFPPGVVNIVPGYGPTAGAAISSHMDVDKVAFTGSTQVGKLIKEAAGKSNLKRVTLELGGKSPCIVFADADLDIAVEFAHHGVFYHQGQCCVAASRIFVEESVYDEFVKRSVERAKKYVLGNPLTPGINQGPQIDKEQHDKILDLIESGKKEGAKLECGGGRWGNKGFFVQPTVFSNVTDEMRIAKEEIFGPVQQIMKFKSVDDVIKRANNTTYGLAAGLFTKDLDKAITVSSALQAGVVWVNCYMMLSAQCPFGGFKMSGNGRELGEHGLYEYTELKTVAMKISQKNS
# UniProt P14901: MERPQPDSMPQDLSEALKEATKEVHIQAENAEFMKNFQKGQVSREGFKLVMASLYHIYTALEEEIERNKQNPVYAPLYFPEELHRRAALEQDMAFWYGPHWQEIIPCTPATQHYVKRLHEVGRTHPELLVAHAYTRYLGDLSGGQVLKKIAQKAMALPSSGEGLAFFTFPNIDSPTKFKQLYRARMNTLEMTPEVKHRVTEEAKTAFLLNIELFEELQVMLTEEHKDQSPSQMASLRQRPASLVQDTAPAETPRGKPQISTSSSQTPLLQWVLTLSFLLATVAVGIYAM
# UniProt P16858: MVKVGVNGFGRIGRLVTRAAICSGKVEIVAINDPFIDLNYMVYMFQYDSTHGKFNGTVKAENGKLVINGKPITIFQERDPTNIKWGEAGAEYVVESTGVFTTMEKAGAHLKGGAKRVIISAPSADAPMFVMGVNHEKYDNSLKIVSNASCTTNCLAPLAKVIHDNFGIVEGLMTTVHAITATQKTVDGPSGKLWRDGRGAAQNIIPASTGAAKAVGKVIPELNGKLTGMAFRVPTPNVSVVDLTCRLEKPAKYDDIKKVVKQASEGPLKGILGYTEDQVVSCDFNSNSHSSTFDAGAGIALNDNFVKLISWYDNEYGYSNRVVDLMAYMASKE
# UniProt P06728: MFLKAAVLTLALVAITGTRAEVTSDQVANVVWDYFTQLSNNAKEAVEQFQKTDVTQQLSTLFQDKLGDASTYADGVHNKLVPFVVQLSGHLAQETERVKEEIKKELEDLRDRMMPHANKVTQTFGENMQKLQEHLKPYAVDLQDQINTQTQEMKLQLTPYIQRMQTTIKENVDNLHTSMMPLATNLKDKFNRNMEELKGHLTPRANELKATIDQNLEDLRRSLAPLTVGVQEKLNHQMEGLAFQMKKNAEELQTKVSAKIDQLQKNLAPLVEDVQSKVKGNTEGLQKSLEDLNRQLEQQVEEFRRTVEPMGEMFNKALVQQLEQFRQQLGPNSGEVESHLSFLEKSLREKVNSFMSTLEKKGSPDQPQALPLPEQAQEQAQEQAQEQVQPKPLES
# UniProt P21126: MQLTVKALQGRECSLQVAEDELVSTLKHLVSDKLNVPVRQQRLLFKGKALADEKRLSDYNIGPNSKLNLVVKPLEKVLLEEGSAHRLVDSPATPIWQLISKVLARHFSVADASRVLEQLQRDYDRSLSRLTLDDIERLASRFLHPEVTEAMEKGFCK
# UniProt P28078: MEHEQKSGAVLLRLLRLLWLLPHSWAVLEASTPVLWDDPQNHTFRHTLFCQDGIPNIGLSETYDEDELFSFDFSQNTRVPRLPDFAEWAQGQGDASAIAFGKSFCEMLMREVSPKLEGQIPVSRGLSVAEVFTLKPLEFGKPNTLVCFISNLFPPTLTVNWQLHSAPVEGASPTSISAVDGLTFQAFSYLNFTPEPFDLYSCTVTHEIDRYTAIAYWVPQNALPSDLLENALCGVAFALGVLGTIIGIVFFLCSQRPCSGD
# UniProt P24638: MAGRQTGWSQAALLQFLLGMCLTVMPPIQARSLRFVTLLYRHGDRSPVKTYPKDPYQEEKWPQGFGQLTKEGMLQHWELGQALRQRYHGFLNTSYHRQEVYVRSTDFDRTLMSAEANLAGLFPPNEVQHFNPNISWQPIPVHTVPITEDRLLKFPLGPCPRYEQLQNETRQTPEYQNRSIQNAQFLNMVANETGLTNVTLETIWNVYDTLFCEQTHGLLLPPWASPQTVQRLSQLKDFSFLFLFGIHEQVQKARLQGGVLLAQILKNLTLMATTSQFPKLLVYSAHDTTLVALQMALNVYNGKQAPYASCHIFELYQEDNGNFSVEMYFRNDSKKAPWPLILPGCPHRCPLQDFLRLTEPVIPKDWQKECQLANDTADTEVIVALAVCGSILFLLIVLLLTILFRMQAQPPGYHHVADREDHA
# UniProt P06802: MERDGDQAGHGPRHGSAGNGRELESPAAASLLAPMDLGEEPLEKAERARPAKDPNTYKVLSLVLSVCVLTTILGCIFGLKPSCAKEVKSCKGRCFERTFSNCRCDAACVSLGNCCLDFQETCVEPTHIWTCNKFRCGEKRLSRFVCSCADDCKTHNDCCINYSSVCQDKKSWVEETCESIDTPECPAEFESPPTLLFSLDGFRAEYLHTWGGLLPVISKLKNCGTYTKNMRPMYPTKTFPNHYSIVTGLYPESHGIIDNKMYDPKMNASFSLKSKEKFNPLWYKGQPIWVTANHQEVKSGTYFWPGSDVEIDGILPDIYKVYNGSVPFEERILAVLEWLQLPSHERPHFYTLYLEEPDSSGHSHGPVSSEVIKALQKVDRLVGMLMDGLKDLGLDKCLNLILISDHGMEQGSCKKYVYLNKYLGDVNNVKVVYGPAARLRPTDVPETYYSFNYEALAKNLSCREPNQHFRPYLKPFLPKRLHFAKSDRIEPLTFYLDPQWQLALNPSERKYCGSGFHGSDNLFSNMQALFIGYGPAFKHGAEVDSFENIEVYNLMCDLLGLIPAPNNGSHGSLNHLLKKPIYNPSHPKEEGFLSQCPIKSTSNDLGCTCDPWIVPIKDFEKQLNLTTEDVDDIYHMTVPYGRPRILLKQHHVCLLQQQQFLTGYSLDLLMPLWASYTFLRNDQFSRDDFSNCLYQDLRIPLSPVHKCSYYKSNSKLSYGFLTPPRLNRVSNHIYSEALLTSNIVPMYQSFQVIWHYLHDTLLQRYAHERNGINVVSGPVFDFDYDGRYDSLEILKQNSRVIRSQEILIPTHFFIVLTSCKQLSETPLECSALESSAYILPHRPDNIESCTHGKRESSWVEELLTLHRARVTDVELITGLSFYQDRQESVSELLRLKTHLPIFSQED
# UniProt P25446: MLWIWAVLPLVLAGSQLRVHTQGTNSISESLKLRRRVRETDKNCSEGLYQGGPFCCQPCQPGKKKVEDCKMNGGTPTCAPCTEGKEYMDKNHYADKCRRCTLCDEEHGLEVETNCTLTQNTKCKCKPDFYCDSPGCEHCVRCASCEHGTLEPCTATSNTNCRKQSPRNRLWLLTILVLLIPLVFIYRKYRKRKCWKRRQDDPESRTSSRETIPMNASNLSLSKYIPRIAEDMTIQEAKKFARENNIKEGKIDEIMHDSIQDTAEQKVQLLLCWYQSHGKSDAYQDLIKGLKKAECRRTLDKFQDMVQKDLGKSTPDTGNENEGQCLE
# UniProt P0DN89: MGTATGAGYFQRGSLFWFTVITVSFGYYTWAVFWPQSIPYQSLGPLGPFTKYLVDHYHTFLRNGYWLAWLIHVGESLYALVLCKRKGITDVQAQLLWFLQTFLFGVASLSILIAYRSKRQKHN
# UniProt P13707: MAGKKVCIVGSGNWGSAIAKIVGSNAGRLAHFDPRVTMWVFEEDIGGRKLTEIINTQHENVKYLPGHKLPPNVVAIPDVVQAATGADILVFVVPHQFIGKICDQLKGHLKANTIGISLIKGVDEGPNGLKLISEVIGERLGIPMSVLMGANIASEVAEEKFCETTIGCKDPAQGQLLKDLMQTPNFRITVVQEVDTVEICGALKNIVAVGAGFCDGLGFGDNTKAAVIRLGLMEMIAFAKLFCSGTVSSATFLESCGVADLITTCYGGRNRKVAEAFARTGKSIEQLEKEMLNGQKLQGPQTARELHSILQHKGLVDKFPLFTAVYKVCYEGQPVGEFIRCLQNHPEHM
# UniProt P07361: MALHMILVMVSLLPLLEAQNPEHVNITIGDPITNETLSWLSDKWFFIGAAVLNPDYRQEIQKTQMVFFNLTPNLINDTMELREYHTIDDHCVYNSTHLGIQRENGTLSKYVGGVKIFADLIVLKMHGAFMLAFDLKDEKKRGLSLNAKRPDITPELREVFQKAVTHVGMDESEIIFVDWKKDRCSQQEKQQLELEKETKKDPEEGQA
# UniProt P04919: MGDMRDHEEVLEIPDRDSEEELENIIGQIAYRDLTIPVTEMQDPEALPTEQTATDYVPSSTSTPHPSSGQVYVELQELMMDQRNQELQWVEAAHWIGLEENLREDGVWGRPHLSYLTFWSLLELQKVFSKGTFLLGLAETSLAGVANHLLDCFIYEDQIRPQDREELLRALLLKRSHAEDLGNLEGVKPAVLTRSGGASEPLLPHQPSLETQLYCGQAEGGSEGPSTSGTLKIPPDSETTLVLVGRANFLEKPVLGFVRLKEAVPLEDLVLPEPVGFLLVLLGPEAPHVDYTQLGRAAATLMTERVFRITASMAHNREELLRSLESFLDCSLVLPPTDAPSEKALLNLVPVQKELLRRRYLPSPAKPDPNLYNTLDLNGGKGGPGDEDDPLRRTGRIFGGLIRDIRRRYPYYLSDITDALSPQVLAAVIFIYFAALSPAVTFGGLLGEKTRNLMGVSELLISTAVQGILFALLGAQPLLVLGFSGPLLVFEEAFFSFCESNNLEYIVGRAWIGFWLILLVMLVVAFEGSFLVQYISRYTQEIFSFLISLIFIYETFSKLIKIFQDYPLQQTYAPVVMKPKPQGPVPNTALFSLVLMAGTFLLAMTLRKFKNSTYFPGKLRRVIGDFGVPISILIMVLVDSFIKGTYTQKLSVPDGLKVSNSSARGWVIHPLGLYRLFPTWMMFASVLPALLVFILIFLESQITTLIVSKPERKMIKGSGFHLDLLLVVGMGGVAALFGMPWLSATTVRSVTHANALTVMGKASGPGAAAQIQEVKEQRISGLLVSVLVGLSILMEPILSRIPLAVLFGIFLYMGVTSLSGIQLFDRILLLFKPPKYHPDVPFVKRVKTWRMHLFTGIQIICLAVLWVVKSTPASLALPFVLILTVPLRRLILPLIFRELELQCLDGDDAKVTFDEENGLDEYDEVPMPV
# UniProt P19221, whole entry: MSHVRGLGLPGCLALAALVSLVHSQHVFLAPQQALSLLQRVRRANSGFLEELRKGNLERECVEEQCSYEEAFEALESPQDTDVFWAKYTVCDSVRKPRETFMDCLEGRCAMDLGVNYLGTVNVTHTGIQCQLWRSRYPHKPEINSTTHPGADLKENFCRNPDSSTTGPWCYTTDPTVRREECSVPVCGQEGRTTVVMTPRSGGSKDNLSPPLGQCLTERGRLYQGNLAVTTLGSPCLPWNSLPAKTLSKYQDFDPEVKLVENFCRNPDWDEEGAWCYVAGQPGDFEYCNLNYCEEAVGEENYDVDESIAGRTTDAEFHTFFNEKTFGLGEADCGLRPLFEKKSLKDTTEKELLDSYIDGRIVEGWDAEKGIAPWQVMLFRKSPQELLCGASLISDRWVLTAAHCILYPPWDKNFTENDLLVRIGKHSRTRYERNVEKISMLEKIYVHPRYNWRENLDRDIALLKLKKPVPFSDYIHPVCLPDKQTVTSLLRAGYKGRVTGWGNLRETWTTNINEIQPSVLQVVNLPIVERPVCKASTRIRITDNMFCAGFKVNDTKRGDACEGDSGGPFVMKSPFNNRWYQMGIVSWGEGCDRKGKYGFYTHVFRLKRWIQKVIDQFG
# UniProt P09925: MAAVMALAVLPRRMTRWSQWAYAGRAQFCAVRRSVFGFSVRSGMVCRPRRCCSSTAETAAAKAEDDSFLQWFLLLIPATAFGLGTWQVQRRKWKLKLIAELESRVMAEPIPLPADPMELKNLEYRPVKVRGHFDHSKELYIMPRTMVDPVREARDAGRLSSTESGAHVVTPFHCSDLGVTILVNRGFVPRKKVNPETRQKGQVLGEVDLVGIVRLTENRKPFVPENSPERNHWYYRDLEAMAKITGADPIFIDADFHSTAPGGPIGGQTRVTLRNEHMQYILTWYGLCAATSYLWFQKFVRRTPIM
# The other results are listed elsewhere or left out. Small differences around the control level are noise.
# Compound: CN[C@@H]1C[C@H]2O[C@@](C)([C@@H]1OC)n1c3ccccc3c3c4c(c5c6ccccc6n2c5c31)C(=O)NC4 [staurosporine]
# Assay: log2 fold change of pooled soluble protein (PISA), ligand vs vehicle (log2 ratio); higher = more thermally stabilized
# Conditions: ligand concentration: 20 uM; assay format: PISA pool 52.9/55.5/58.6 C
row,Target,log2 fold change of pooled soluble protein
1,P0DP26;P0DP27;P0DP28,0.25
2,UniProt P12265,-0.172
3,UniProt P17156,-0.64
4,UniProt P20152,-0.0523
5,UniProt P11103,-0.275
6,UniProt P24549,0.1
7,UniProt P16056,-0.0411
8,UniProt P06745,-0.0343
9,UniProt P28474,-0.0371
10,UniProt P14901,0.105
11,UniProt P16858,-0.0992
12,UniProt P06728,-0.0634
13,UniProt P21126,0.194
14,UniProt P06151,0.0183
15,UniProt P28078,0.268
16,UniProt P24638,0.0626
17,UniProt P11276,-0.0406
18,UniProt P06802,0.07
19,UniProt P0DJE0,-0.0568

row,Target,log2 fold change of pooled soluble protein
1,UniProt P25446,0.046
2,UniProt P13595,-0.0759
3,UniProt P0DN89,-0.0326
4,UniProt P13707,-0.0853
5,UniProt P11930,0.186
6,UniProt P11404,0.0232
7,UniProt P16254,0.156
8,UniProt P07214,0.291
9,UniProt P09803,0.0813
10,UniProt P07361,0.068
11,UniProt P10711,-0.0793
12,UniProt P04919,0.0396
13,UniProt P19221,0.12
14,UniProt P23475,0.0886
15,UniProt P09925,-0.171
16,UniProt P18572,0.034
17,UniProt P21550,-0.179
18,UniProt P16015,-0.0595

# Copied from the list:
# Under log2 fold change of pooled soluble protein, UniProt P19221 shows 0.12
# Under log2 fold change of pooled soluble protein, UniProt P07214 shows 0.291
